{"source": "PubChem BioAssay AID1259405 (NCATS, 2018)", "aim": "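Mouse-designed siRNAs used to find CHO productivity engineering targets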 (primary screen)", "system": "Chinese hamster CHO-K1 ovary cells with stable secreted eGFP expression", "knock-down reagent": "single siRNA against mouse genes, 0.8 pmol siRNA per well (2 µl of 400 nM stock)", "timing": "3 days", "detection": "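Per-well intracellular GFP measured by laser scanning cytometry, plus viability from ATP luminescence, each relative to plate median of non-targeting control wells, in %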", "scale": "GFP, % of control: higher = more GFP per well, higher productivity; viability (ATP), % of control: higher = more viable cells (more ATP)", "hit rule": "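a knock-down is called active if GFP reaches 120% or more of non-targeting control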", "note": "In all, the deposit lists about 50,000 reagents; below is an unselected part. About 4,000 of them (8%) were called active. 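Mouse siRNA library applied to hamster cells; one well for each siRNA.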 The numbers tell different reagents against one gene apart."}
{"gene": "Nup93", "reagent": 1, "GFP, % of control": 147, "viability (ATP), % of control": 120, "call": "active"}
{"gene": "Nup93", "reagent": 2, "GFP, % of control": 103, "viability (ATP), % of control": 122, "call": "inactive"}
{"gene": "Nup93", "reagent": 3, "GFP, % of control": 104, "viability (ATP), % of control": 93.9, "call": "inactive"}
{"gene": "Minar1", "reagent": 1, "GFP, % of control": 95.2, "viability (ATP), % of control": 54, "call": "inactive"}
{"gene": "Minar1", "reagent": 2, "GFP, % of control": 53, "viability (ATP), % of control": 36, "call": "inactive"}
{"gene": "Minar1", "reagent": 3, "GFP, % of control": 77.6, "viability (ATP), % of control": 89.7, "call": "inactive"}
{"gene": "Iqsec1", "reagent": 1, "GFP, % of control": 58.4, "viability (ATP), % of control": 77.4, "call": "inactive"}
{"gene": "Iqsec1", "reagent": 2, "GFP, % of control": 36.3, "viability (ATP), % of control": 54.7, "call": "inactive"}
{"gene": "Iqsec1", "reagent": 3, "GFP, % of control": 208, "viability (ATP), % of control": 72, "call": "active"}
{"gene": "Flywch1", "reagent": 1, "GFP, % of control": 80, "viability (ATP), % of control": 77.7, "call": "inactive"}
{"gene": "Flywch1", "reagent": 2, "GFP, % of control": 117, "viability (ATP), % of control": 80.6, "call": "inactive"}
{"gene": "Flywch1", "reagent": 3, "GFP, % of control": 89.6, "viability (ATP), % of control": 76.3, "call": "inactive"}
{"gene": "Apoc2", "reagent": 1, "GFP, % of control": 106, "viability (ATP), % of control": 77.9, "call": "inactive"}
{"gene": "Apoc2", "reagent": 2, "GFP, % of control": 71.9, "viability (ATP), % of control": 67.2, "call": "inactive"}
{"gene": "Apoc2", "reagent": 3, "GFP, % of control": 88.8, "viability (ATP), % of control": 53.3, "call": "inactive"}
{"gene": "Gm5535", "reagent": 1, "GFP, % of control": 66.4, "viability (ATP), % of control": 72.3, "call": "inactive"}
{"gene": "Gm5535", "reagent": 2, "GFP, % of control": 79.4, "viability (ATP), % of control": 80.8, "call": "inactive"}
{"gene": "Gm5535", "reagent": 3, "GFP, % of control": 62.5, "viability (ATP), % of control": 76.1, "call": "inactive"}
{"gene": "Vac14", "reagent": 1, "GFP, % of control": 81.2, "viability (ATP), % of control": 111, "call": "inactive"}
{"gene": "Vac14", "reagent": 2, "GFP, % of control": 162, "viability (ATP), % of control": 118, "call": "active"}
{"gene": "Vac14", "reagent": 3, "GFP, % of control": 85.9, "viability (ATP), % of control": 96, "call": "inactive"}
{"gene": "Nsg1", "reagent": 1, "GFP, % of control": 61.9, "viability (ATP), % of control": 72.3, "call": "inactive"}
{"gene": "Nsg1", "reagent": 2, "GFP, % of control": 89.6, "viability (ATP), % of control": 73.4, "call": "inactive"}
{"gene": "Nsg1", "reagent": 3, "GFP, % of control": 89.2, "viability (ATP), % of control": 32.2, "call": "inactive"}
{"gene": "Galp", "reagent": 1, "GFP, % of control": 98.1, "viability (ATP), % of control": 110, "call": "inactive"}
{"gene": "Galp", "reagent": 2, "GFP, % of control": 84.6, "viability (ATP), % of control": 70.8, "call": "inactive"}
{"gene": "Galp", "reagent": 3, "GFP, % of control": 74.7, "viability (ATP), % of control": 79.8, "call": "inactive"}
{"gene": "Ank2", "reagent": 1, "GFP, % of control": 83.3, "viability (ATP), % of control": 75.1, "call": "inactive"}
{"gene": "Ank2", "reagent": 2, "GFP, % of control": 83.4, "viability (ATP), % of control": 86, "call": "inactive"}
{"gene": "Ank2", "reagent": 3, "GFP, % of control": 91.5, "viability (ATP), % of control": 77.3, "call": "inactive"}
{"gene": "Rpp25l", "reagent": 1, "GFP, % of control": 97.5, "viability (ATP), % of control": 71.1, "call": "inactive"}
{"gene": "Rpp25l", "reagent": 2, "GFP, % of control": 93.5, "viability (ATP), % of control": 84.8, "call": "inactive"}
{"gene": "Rpp25l", "reagent": 3, "GFP, % of control": 63.2, "viability (ATP), % of control": 57.9, "call": "inactive"}
{"gene": "Ints2", "reagent": 1, "GFP, % of control": 70.7, "viability (ATP), % of control": 57, "call": "inactive"}
{"gene": "Ints2", "reagent": 2, "GFP, % of control": 36.9, "viability (ATP), % of control": 36.9, "call": "inactive"}
{"gene": "Ints2", "reagent": 3, "GFP, % of control": 77.6, "viability (ATP), % of control": 70.8, "call": "inactive"}
{"gene": "Dok5", "reagent": 1, "GFP, % of control": 87.5, "viability (ATP), % of control": 81.6, "call": "inactive"}
{"gene": "Dok5", "reagent": 2, "GFP, % of control": 102, "viability (ATP), % of control": 86.9, "call": "inactive"}
{"gene": "Dok5", "reagent": 3, "GFP, % of control": 92.6, "viability (ATP), % of control": 61.6, "call": "inactive"}
{"gene": "Pabpc4", "reagent": 1, "GFP, % of control": 79, "viability (ATP), % of control": 129, "call": "inactive"}
{"gene": "Pabpc4", "reagent": 2, "GFP, % of control": 47, "viability (ATP), % of control": 62.2, "call": "inactive"}

6 entries from above, set out differently.
Iqsec1 #3
- GFP, % of control: 208
- viability (ATP), % of control: 72
- call: active

Flywch1 #1
- GFP, % of control: 80
- viability (ATP), % of control: 77.7
- call: inactive

Flywch1 #2
- GFP, % of control: 117
- viability (ATP), % of control: 80.6
- call: inactive

Flywch1 #3
- GFP, % of control: 89.6
- viability (ATP), % of control: 76.3
- call: inactive

Apoc2 #1
- GFP, % of control: 106
- viability (ATP), % of control: 77.9
- call: inactive

Apoc2 #2
- GFP, % of control: 71.9
- viability (ATP), % of control: 67.2
- call: inactive
